According to patent publication US20150232546A1 (THROMBOGENICS, published 2015):
Results are given in words; binding and its absence hold for the method and conditions named. Some results given as binding are weak or reduced against the parent protein; the word gives no strength.

T1: human PDGF-C peptide no. 58 (human)
T1 peptide: Biotin-VLQLRPKTGVRGLHK

T2: human PDGF-C peptide no. 1 (human)
T2 sequence (peptide, N-terminally biotinylated): ESNLSSKFQFSSNKE

T3: human PDGF-C peptide no. 44 (human)
T3 sequence (peptide, N-terminally biotinylated): LNLLTEEVRLYSCTP

T4: human PDGF-C peptide no. 56 (human)
T4 sequence (peptide, N-terminally biotinylated): PSKVTKKYHEVLQLR

T5: human PDGF-C peptide no. 17 (human)
T5 sequence (peptide, N-terminally biotinylated): ICKYDFVEVEEPSDG

T6: human PDGF-C peptide no. 32 (human)
T6 sequence (peptide, N-terminally biotinylated): PSALPLDLLNNAITA

T7: human PDGF-C peptide no. 41 (human)
T7 sequence (peptide, N-terminally biotinylated): LGKAFVFGRKSRVVD

T8: human PDGF-C peptide no. 43 (human)
T8 sequence (peptide, N-terminally biotinylated): SRVVDLNLLTEEVRL

T9: human PDGF-C peptide no. 13 (human)
T9 sequence (peptide, N-terminally biotinylated): NVWIQLTFDERFGLE

T10: human PDGF-C peptide no. 27 (human)
T10 peptide: Biotin-EPGFCIHYNIVMPQF

T11: human PDGF-C peptide no. 15 (human)
T11 sequence (peptide, N-terminally biotinylated): RFGLEDPEDDICKYD

T12: human PDGF-C peptide no. 8 (human)
T12 sequence (peptide, N-terminally biotinylated): IHSPRFPHTYPRNTV

T13: human PDGF-C peptide no. 21 (human)
T13 sequence (peptide, N-terminally biotinylated): WCGSGTVPGKQISKG

T14: human PDGF-C peptide no. 16 (human)
T14 sequence (peptide, N-terminally biotinylated): DPEDDICKYDFVEVE

T15: human PDGF-C peptide no. 53 (human)
T15 sequence (peptide, N-terminally biotinylated): NCACCLHNCNECQCV


Assays:
[1] = target: T1, human PDGF-C peptide no. 58; assay: peptide ELISA, signal to background >3
Protocol: The indicated peptides where synthesized in an N-terminally biotinylated form and coated onto a neutravidin plate (Thermo Scientific, Cat. 15127) at a concentration of 10 μg/mL. […] Each antibody was tested at least twice, and up to 4 times. A “+” in the table indicate that a signal to background >3 was found and confirmed at least once. The background signal was measured in the absence of peptide using both the primary and the secondary antibodies.

[2] = target: T2, human PDGF-C peptide no. 1 (human); assay: peptide ELISA
[3] = target: T3, human PDGF-C peptide no. 44 (human); assay: peptide ELISA
[4] = target: T4, human PDGF-C peptide no. 56 (human); assay: peptide ELISA
[5] = target: T5, human PDGF-C peptide no. 17 (human); assay: peptide ELISA
[6] = target: T6, human PDGF-C peptide no. 32 (human); assay: peptide ELISA
[7] = target: T7, human PDGF-C peptide no. 41 (human); assay: peptide ELISA
[8] = target: T8, human PDGF-C peptide no. 43 (human); assay: peptide ELISA
[9] = target: T9, human PDGF-C peptide no. 13 (human); assay: peptide ELISA
[10] = target: T1, human PDGF-C peptide no. 58; assay: peptide ELISA
[11] = target: T10, human PDGF-C peptide no. 27; assay: peptide ELISA
[12] = target: T11, human PDGF-C peptide no. 15 (human); assay: peptide ELISA
[13] = target: T12, human PDGF-C peptide no. 8 (human); assay: peptide ELISA
[14] = target: T13, human PDGF-C peptide no. 21 (human); assay: peptide ELISA
[15] = target: T14, human PDGF-C peptide no. 16 (human); assay: peptide ELISA
[16] = target: T15, human PDGF-C peptide no. 53 (human); assay: peptide ELISA

| Binder | binding [1] | binding [2] | binding [3] | binding [4] | binding [5] | binding [6] | binding [7] | binding [8] | binding [9] | binding [10] | binding [11] | binding [12] | binding [13] | binding [14] | binding [15] | binding [16] |
| --- | --- | --- | --- | --- | --- | --- | --- | --- | --- | --- | --- | --- | --- | --- | --- | --- |
| anti-PDGF-C antibody 2D3 (antibody, IgG1, V domains shown, Mouse monoclonal from hybridoma, IgG1, kappa; also called mAb 2D3; hybridoma LMBP 9483CB) VH: EVQLVESGGDLVKPGGSLKLSCAASGFTFSNYGMSWVRQTPDKRLEWVATIGSGGSYTYYPDSVKGRFTISRDSAKNTLYLQMSSLKSEDTAMYYCARQAPLWDYSDYWGQGTTLTVSS VL: DVLMTQTPLSLPVSLGDQASISCRSNQTIVHSNGDTYLEWYLQKPGQSPNLLIYKVSNRFSGVPDRFSGSGSGTDFTLKISRVEAEDLGVYYCFQGSHVPPTFGGGTKLEIK | binds | no binding (tested: 1 µg/mL) | no binding (tested: 1 µg/mL) | no binding (tested: 1 µg/mL) | no binding (tested: 1 µg/mL) | no binding (tested: 1 µg/mL) | no binding (tested: 1 µg/mL) | no binding (tested: 1 µg/mL) | no binding (tested: 1 µg/mL) | binds | no binding (tested: 1 µg/mL) | no binding (tested: 1 µg/mL) | no binding (tested: 1 µg/mL) | no binding (tested: 1 µg/mL) | no binding (tested: 1 µg/mL) | no binding (tested: 1 µg/mL) |
| anti-PDGF-C antibody 5H7 (antibody, IgG1, V domains shown, Mouse monoclonal from hybridoma, IgG1, kappa; also called mAb 5H7; hybridoma LMBP 9485CB) VH: EVQLVESGGDLVKPGGSLKLSCAASGFTFSSYGMSWVRQTPDKRLEWVATIGYGGSFTYYPDSMKGRFTISRDNAKNTLFLQMSSLKSEDTAIYYCVRQAPLWDYFDYWGQGTTLTVSS VL: DVLMTQTPLSLPVSLGDQASISCRSSQTIVHSDGTTYLEWYLQKAGQSPKLLIYKVSNRFSGVPDRFSGSGSGTDFTLKISRVEAEDLGVYYCFQGSHVPPTFGGGTKLEIK |  | no binding (tested: 1 µg/mL) | no binding (tested: 1 µg/mL) | no binding (tested: 1 µg/mL) | no binding (tested: 1 µg/mL) | no binding (tested: 1 µg/mL) | no binding (tested: 1 µg/mL) | no binding (tested: 1 µg/mL) | no binding (tested: 1 µg/mL) |  | no binding (tested: 1 µg/mL) | no binding (tested: 1 µg/mL) | no binding (tested: 1 µg/mL) | no binding (tested: 1 µg/mL) | no binding (tested: 1 µg/mL) | no binding (tested: 1 µg/mL) |
| anti-PDGF-C antibody 16B1 (antibody, IgG1, V domains shown, Mouse monoclonal from hybridoma, IgG1, kappa; VH same as 2D3, VL same as 5A2; also called mAb 16B1; hybridoma LMBP 9486CB) VH: EVQLVESGGDLVKPGGSLKLSCAASGFTFSNYGMSWVRQTPDKRLEWVATIGSGGSYTYYPDSVKGRFTISRDSAKNTLYLQMSSLKSEDTAMYYCARQAPLWDYSDYWGQGTTLTVSS VL: DVLMTQTPLSLPVSLGDQASISCRSNQSIVHSNGDTYLEWYLQKPGQSPKLLIYKVSNRFSGVPDRFSGSGSGTDFTLKISRVEAEDLGVYYCFQGSHVPPTFGGGTKLEIK |  | no binding (tested: 1 µg/mL) | no binding (tested: 1 µg/mL) | no binding (tested: 1 µg/mL) | no binding (tested: 1 µg/mL) | no binding (tested: 1 µg/mL) | no binding (tested: 1 µg/mL) | no binding (tested: 1 µg/mL) | no binding (tested: 1 µg/mL) | no binding (tested: 1 µg/mL) | no binding (tested: 1 µg/mL) | no binding (tested: 1 µg/mL) | no binding (tested: 1 µg/mL) | no binding (tested: 1 µg/mL) | no binding (tested: 1 µg/mL) | no binding (tested: 1 µg/mL) |
| anti-PDGF-C antibody 29H1 (antibody, IgG1, V domains shown, Mouse monoclonal from hybridoma, IgG1, kappa; also called mAb 29H1; hybridoma LMBP 9487CB) VH: EVQLVESGGDLVKPGGSLKLSCAASGFTFSNYGMSWVRQTPDKRLEWVATIGSGGHYTYYPDSVKGRFTISRDSAKSTLYLQMSSLRSDDTAIYYCARQAPLWDCSDYWGQGTTLTVSS VL: DVLMTQTPLSLPVSLGDQASISCRSNQSIVHSNGDTYLEWYLQKPGQSPNLLIYKVSNRFSGVPDRFSGSGSGTDFTLKISRVEAEDLGVYYCFQGSHVPPTFGGGTKLEIK |  | no binding (tested: 1 µg/mL) | no binding (tested: 1 µg/mL) | no binding (tested: 1 µg/mL) | no binding (tested: 1 µg/mL) | no binding (tested: 1 µg/mL) | no binding (tested: 1 µg/mL) | no binding (tested: 1 µg/mL) | no binding (tested: 1 µg/mL) |  | no binding (tested: 1 µg/mL) | no binding (tested: 1 µg/mL) | no binding (tested: 1 µg/mL) | no binding (tested: 1 µg/mL) | no binding (tested: 1 µg/mL) | no binding (tested: 1 µg/mL) |
